PubChem BioAssay AID504808, Drosophila RNAi Screening Center – 2011
Aim: 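Fly genes required to hold E2F transcription in check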 (primary screen). Cell system: Drosophila S2 cells. Reagents: long dsRNA against Drosophila genes. Detection: 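Dual luciferase plate measurements; E2F-specific signal taken as firefly over Renilla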. Scale: E2F firefly: higher = more E2F reporter activity; Renilla normaliser: higher = more normaliser reporter signal. Active means: 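a knock-down counted as active when the firefly/Renilla E2F signal rose above 50%, a threshold chosen arbitrarily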.
In all, the deposit lists about 21,000 reagents; below is an unselected part of those with a known target gene and a result. In the full data, 18 (0.084%) got an active call. 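Raw counts without plate normalisation, one of two replicates; the ratio scores behind the calls were not deposited.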 The numbers tell different reagents against one gene apart. Names joined by + are all predicted targets of the reagent. Not given: the amount of reagent, the time to read-out.

no.	gene	reagent no.	E2F firefly, rep 1	Renilla normaliser, rep 1	Outcome
1	CG15820 (GeneID 38277)	1	78356	3432	inactive
2	Cnep1r2 (GeneID 39204)	1	85022	3437	inactive
3	Fsn (GeneID 36460)	1	2746	194	inactive
4	Gr23a (GeneID 33453)	1	1.57e5	5050	inactive
5	Pfdn6 (GeneID 40176)	1	1.20e5	7377	inactive
6	CG13116 (GeneID 34288)	1	1.66e5	5270	inactive
7	Rab27 (GeneID 31103)	1	1810	1128	inactive
8	CG32271 (GeneID 38392)	1	91349	3733	inactive
9	CG34006 (retired record) (GeneID 3885652)	1	79416	2262	inactive
10	fzr2 (GeneID 37808)	1	84124	2928	inactive
11	CG1532 (GeneID 33076)	1	1.51e5	5122	inactive
12	CG17221 (GeneID 33521)	1	1.64e5	5398	inactive
13	CG11695 (GeneID 32106)	1	87257	4063	inactive
14	CG6023 (GeneID 32814)	1	1.74e5	5879	inactive
15	CG5493 + CG5327	1	1.43e5	5743	inactive
16	CysRS-m (GeneID 36563)	1	2557	187	inactive
17	DCP1 (GeneID 37790)	1	83400	3614	inactive
18	dpr1 (GeneID 2768858)	1	1.76e5	5611	inactive
19	dpr1 (GeneID 2768858)	2	1.06e5	4383	inactive
20	CtsK2 (GeneID 36973)	1	77711	3416	inactive
21	CG7728 (GeneID 39904)	1	65757	3605	inactive
22	P5cr-2 (GeneID 42106)	1	1.19e5	6198	inactive
23	fbp (GeneID 35265)	1	76565	3314	inactive
24	Sirt7 (GeneID 43433)	1	1205	896	inactive
25	CG42538 (GeneID 8673985)	1	1.28e5	4717	inactive
26	CARPA (GeneID 31687)	1	97321	4768	inactive
27	CAH2 (GeneID 39390)	1	1.26e5	6876	inactive
28	coil (GeneID 35785)	1	2702	212	inactive
29	CG3164 (GeneID 33171)	1	1.50e5	5530	inactive
30	CG15517 (GeneID 43537)	1	1.22e5	6791	inactive
31	Rrp4 (GeneID 37731)	1	74883	3754	inactive
32	Atg18a (GeneID 38913)	1	83547	4351	inactive
33	CR42548 (GeneID 8673959)	1	1.33e5	4686	inactive
34	CG42286 (retired record) (GeneID 41002)	1	1.18e5	6335	inactive

4 consecutive reagents from above, quoted:
no.	gene	reagent no.	E2F firefly, rep 1	Renilla normaliser, rep 1	Outcome
6	CG13116 (GeneID 34288)	1	1.66e5	5270	inactive
7	Rab27 (GeneID 31103)	1	1810	1128	inactive
8	CG32271 (GeneID 38392)	1	91349	3733	inactive
9	CG34006 (retired record) (GeneID 3885652)	1	79416	2262	inactive
